We go through one molecule from publication PMC12741050.

Protein sequences, listed by entry. Tags and fused reporters are not part of them.
UniProt P19474: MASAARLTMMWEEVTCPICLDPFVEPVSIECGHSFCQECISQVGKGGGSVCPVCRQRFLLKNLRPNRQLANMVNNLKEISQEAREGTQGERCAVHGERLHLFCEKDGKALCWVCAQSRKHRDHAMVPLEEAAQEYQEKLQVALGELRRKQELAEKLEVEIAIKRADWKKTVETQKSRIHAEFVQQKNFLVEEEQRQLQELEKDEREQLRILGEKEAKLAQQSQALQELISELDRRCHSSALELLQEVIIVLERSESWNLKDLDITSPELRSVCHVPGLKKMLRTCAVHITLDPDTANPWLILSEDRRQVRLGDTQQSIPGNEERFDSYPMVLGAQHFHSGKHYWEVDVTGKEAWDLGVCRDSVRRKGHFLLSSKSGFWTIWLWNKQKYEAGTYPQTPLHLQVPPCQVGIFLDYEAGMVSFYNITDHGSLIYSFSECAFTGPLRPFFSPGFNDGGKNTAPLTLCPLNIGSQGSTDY

The experiment deals with HA-TRIM21 (human TRIM21 pcDNA3.1-HA-C) (human) (UniProt P19474). Nature of the experiment: co-IP; CRC cell lysates; protein A/G magnetic beads with antibody or anti-Flag / anti-HA magnetic beads, overnight at 4 °C, six washes with lysis buffer, Western blot. For orientation: Immunoblotting shows a protein as a band on a membrane.

No constants are given. Whether binding was seen depends on the method and setting. In cells and extracts the contact can be indirect. Some entries that bind do so weakly or less than the wild type.

B1: SLC25A10 in CRC cells (no SLC25A10 construct named) (protein, UniProt Q9UBX3 1-287)
chain: MAAEARVSRWYFGGLASCGAACCTHPLDLLKVHLQTQQEVKLRMTGMALRVVRTDGILALYSGLSASLCRQMTYSLTRFAIYETVRDRVAKGSQGPLPFHEKVLLGSVSGLAGGFVGTPADLVNVRMQNDVKLPQGQRRNYAHALDGLYRVAREEGLRRLFSGATMASSRGALVTVGQLSCYDQAKQLVLSTGYLSDNIFTHFVASFIAGGCATFLCQPLDVLKTRLMNSKGEYQGVFHCAVETAKLGPLAFYKGLVPAGIRLIPHTVLTFVFLEQLRKNFGIKVPS
As to B1, the binding entry is “binds”.
